Measurements: patent US20230046744A1 (APO T B V, published 2023)
No constants are given. Whether binding was seen depends on the method and setting. Some binding calls cover weakened binding; strength is not graded here.

Protein sequences, listed by entry. Tags and fused reporters are not part of them. Residues count along the entry.
UniProt P07766, residues 23-207: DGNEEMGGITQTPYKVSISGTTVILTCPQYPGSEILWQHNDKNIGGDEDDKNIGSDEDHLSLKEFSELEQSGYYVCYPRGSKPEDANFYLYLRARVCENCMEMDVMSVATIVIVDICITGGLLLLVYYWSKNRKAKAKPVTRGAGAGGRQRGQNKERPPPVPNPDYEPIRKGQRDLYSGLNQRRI

Biological target: CD3 molecule expressed on the surface of T cells (human) (UniProt P07766)
Assay: told with the construct; no direct binding assay described

- binding: binds
B1: 1B10×CD3 bispecific nanobody (bispecific antibody)
chain: EVQLVESGGGLVQPGGSLKLSCQASRMLFKVNTMGWYRQGPGKQRELVADITEGGSIKYADSVKGRFTISRDNAKTTVYLQMNSLKPEDTAVYFCNAIDRVNSQYWGQGTQVTVSSGGGGSQVKLEESGGGLVQAGGLLRVSCTASGRTFDTMGWFRQAPGKEREFVAAVRWSSGNTLYGNTVKGRFTISRDTATNTVYLQMSSLKHEDTAVYYCAARWGGRGAADHWGQGTQVTVSSHHHHHH
